Measured values published in the supplement of paper PMC10338343.
± gives the standard deviation. The list shows a part of the results. The uncertainty is large for many entries.

The sequences below were run on EfPiwi piRISC loaded with L1MC piRNA (26 nt) (assay: pre-steady-state target cleavage rate (min^-1); guide: L1MC piRNA 5'p-UAACUAAAUACUAUGCAAGCUGUAGG; MIWI and MILI are mouse PIWI proteins and EfPiwi is from a freshwater sponge; tags in brackets are library labels; higher = faster piRNA-guided slicing of the target). Conditions: auxiliary factor: none (no Gtsf1).
Method in brief: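 Using HEPES–potassium acetate buffer at 33 °C, 1 nM active affinity-purified piRISC with a single synthetic guide was mixed with 0.1 nM transcribed, DNA-blocked target RNA library for 0–8 or 0–960 min, with or without 500 nM GTSF1 partner protein. Uncleaved targets were sequenced and normalised to depth and to weakly complementary targets, and three trials were pooled with k3 capped at 0.0001 min^-1. A burst-and-steady-state fit gave the pre-steady-state cleavage rate.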

Row | Sequence | pre-steady-state target cleavage rate
1 | UCCUGGAUGUCGAACGUUUGUAUAUAGUUA | 0.000206 ± 0.037
2 | UCCUGGAUGUCGAACCAUAGGUAUUUAGUUA | 0.000149 ± 0.039
3 | UCCUGCUACAGCUUGCAUAGUCUUUAGUUA | 0.000283 ± 0.012
4 | UCCUGCUACAGCAUGCAUAGAAUUUAGUUA | 0.000313 ± 0.024
5 | UCCUGGAUGUCGAACGUAUCUAUUUGUUA | 0.000131 ± 0.037
6 | UCCUGCUACAGCUUGCAUAGUAUUAAGUAA | 0.000545 ± 0.015
